From PMC7819943, “Rice protein-binding microarrays: a tool to detect cis-acting elements near promoter regions in rice”
The other results are listed elsewhere or left out.

Sequences of proteins named here, by UniProt entry; tags and fusion partners are left off.
UniProt Q0JBA9, entry or part of it: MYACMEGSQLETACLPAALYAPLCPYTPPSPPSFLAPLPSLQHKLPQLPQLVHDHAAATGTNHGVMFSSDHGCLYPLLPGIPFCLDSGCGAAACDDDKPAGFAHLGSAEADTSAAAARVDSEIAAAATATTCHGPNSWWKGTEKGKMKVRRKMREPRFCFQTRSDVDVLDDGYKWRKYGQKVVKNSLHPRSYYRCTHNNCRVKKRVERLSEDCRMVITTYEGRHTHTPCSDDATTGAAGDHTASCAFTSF

These sequences were tested against OsWRKY34 (Oryza sativa, UniProt Q0JBA9 1-250) (assay: protein-binding microarray (RPBM); PBS, 2% BSA, 51.3 ng/ul salmon testes DNA, 50 uM zinc acetate, 200 nM TF, 25 C, 1 h; high values mean tight binding). Settings: protein: recombinant; tags: N-terminal polyhistidine and DsRed monomer fusion (pET32a); label: CyDye5-dUTP incorporated in the synthesized complementary strand; 3' TTTTT single-stranded linker to array surface; dsDNA, one strand shown.
Method in brief: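 In PBS with 2% BSA, salmon testes DNA and 50 µM zinc acetate, 200 nM protein was incubated on a custom Agilent array at 25 °C for 1 h and then washed off. The array had been made double-stranded by primer extension with Cy5-dUTP and blocked with 2% BSA. The proteins were transcription factors fused N-terminally to polyhistidine and DsRed, expressed in E. coli BL21-CodonPlus and purified on Ni–NTA. The binding signal is per-feature fluorescence intensity (arbitrary units) from an Axon 4000B scanner.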

Going from “TTTATTTTTCCTTTAAGTTTCCATATGTTGTTTATTTAACCGGAGTCACCTAGTGCAG” to “GCCACCGCCGCCGCATCTCCTCATTCTTCCCGCCGCAGCTCGGAGTCACCTAGTGCAG”, the binding signal rises from 8260 fluorescence intensity (a.u.) to 8400 fluorescence intensity (a.u.).

Going from “AAAAAAATATATATGGCGGTGTTGACTTGGTTTTGGTCTTCGGAGTCACCTAGTGCAG” to “GGTTTGGATGGCTGATTTGTGTAAAGTTGGGCTAGAGTTGCGGAGTCACCTAGTGCAG”, the binding signal falls from 11800 fluorescence intensity (a.u.) to 9020 fluorescence intensity (a.u.).

Going from “GAGTCACTGGGTTCTACACCACTCAGTCCAATCAAACCAACGGAGTCACCTAGTGCAG” to “TTCATTTACGGCTTTACCATTTTCCATTTTTTTTCTTAGACGGAGTCACCTAGTGCAG”, the binding signal falls from 8830 fluorescence intensity (a.u.) to 8130 fluorescence intensity (a.u.).

Compared with “ACCTTAACTCTCGTTCAACTAACTTTTGCATCTACTGAATCGGAGTCACCTAGTGCAG”, “GAGGAGACGCTGGGACTGGGTGGGTACCCTCCGCCGCCGGCGGAGTCACCTAGTGCAG” is higher in binding signal: 8440 fluorescence intensity (a.u.) for the first, 10000 fluorescence intensity (a.u.) for the second.

Going from “CCCCTCGCCTACCCACAGCTGTTCACATCACTCCCGCTCCCGGAGTCACCTAGTGCAG” to “TCCTTTTGTGCTGAACTTGTTTTGTTGGTACTTGACACAACGGAGTCACCTAGTGCAG”, the binding signal rises from 8120 fluorescence intensity (a.u.) to 10600 fluorescence intensity (a.u.).

Going from “AATTGACAATGTCTCACCATTCGCCTACTCTTAAGCACCACGGAGTCACCTAGTGCAG” to “CTATTCGTGTTGGAGGAATACTGTTTTACGATCCGGTTTCCGGAGTCACCTAGTGCAG”, the binding signal falls from 9440 fluorescence intensity (a.u.) to 8040 fluorescence intensity (a.u.).

Compared with “TTTACTAAACTTCAGAAATTTTATGCATTTATCCTTTCATCGGAGTCACCTAGTGCAG”, “CAGAGGGTTATTTGTGTGCCTTTTGGAAAGTTTAGGGTTTCGGAGTCACCTAGTGCAG” is higher in binding signal: 8280 fluorescence intensity (a.u.) for the first, 10200 fluorescence intensity (a.u.) for the second.

First: CTCTCCCTCCGCTCTCTCGCCGCCGTCGCCGCCACGCGCTCGGAGTCACCTAGTGCAG
Second: ATTTGTTAGTCTTCAATTTTTCTCTTTTAATTTTTCTTTTCGGAGTCACCTAGTGCAG
The binding signal of the first is lower: 8950 fluorescence intensity (a.u.) for the first, 11200 fluorescence intensity (a.u.) for the second.

Compared with “GCACACCTTCCCTTGATGTCAGCTTTGATAGTGTTGAGGTCGGAGTCACCTAGTGCAG”, “TAGTATAGCACTCTGCAGTTTTCCCCGATCGACGACGTCGCGGAGTCACCTAGTGCAG” is lower in binding signal: 9680 fluorescence intensity (a.u.) for the first, 8110 fluorescence intensity (a.u.) for the second.

Compared with “GTAGCTCTGTAAACCCCGCGTGTCGGTGTCGGTGGGCGGGCGGAGTCACCTAGTGCAG”, “TAGGGAGGGTTGTGGGGAGGGGAGCTGTGGCCGCAATGTCCGGAGTCACCTAGTGCAG” is higher in binding signal: 12900 fluorescence intensity (a.u.) for the first, 19400 fluorescence intensity (a.u.) for the second.

Compared with “TCAAACCAGGGACTTTGCGTGGAGGAGAGGGGCGGCGGGGCGGAGTCACCTAGTGCAG”, “GTTGCAGGCGCCTATGTTTGTACAGTGTTTCAAGAAAAAACGGAGTCACCTAGTGCAG” is lower in binding signal: 15100 fluorescence intensity (a.u.) for the first, 9900 fluorescence intensity (a.u.) for the second.

Compared with “CGCTCGTCCGCTCCACTCCACCACCAGAAGTACCACCTCCCGGAGTCACCTAGTGCAG”, “ATCTTATATTCAGGTACATATTAAAATATTTTCCCATCAGCGGAGTCACCTAGTGCAG” is lower in binding signal: 9360 fluorescence intensity (a.u.) for the first, 8230 fluorescence intensity (a.u.) for the second.

First: CGCCGCCTCCGCCTCCGCTTCCGCTCGCCCGGACCCGCCTCGGAGTCACCTAGTGCAG
Second: TTTTTTTTCTTTTTTTTTTGTCGGTGCGGCTTTTTCTTTCCGGAGTCACCTAGTGCAG
The binding signal of the first is higher: 11100 fluorescence intensity (a.u.) for the first, 9000 fluorescence intensity (a.u.) for the second.

Going from “AGAAACAACTAACCGCTTATTCTACTACAGATTATAACAACGGAGTCACCTAGTGCAG” to “TCATTTGAGTTGTTCTTTCTCACACCCAATTCTTACATTTCGGAGTCACCTAGTGCAG”, the binding signal rises from 8980 fluorescence intensity (a.u.) to 9450 fluorescence intensity (a.u.).

Going from “AGCAGCACCATTATTCCTGCTGGCTAGTGTGTCCATTTGACGGAGTCACCTAGTGCAG” to “CCCTGGAGTTTTCTCTCTCCTGCCGGTGCTCCCAACTCTTCGGAGTCACCTAGTGCAG”, the binding signal falls from 8840 fluorescence intensity (a.u.) to 8140 fluorescence intensity (a.u.).

Compared with “TCGCCGCAAAAACCACGCCGCCATCACAGCATTCGTGCATCGGAGTCACCTAGTGCAG”, “GCACACGTCGTTCGGTTCCTCTCCACTCCAACTCCACCGTCGGAGTCACCTAGTGCAG” is higher in binding signal: 8140 fluorescence intensity (a.u.) for the first, 8160 fluorescence intensity (a.u.) for the second.

Going from “ATATTTCAAGTTTGTAATCATATGCTAACGGTTCATCTCACGGAGTCACCTAGTGCAG” to “CCATGTCCTGCTCTGCCTCTCCATTCACATCTCCAGCACACGGAGTCACCTAGTGCAG”, the binding signal rises from 8910 fluorescence intensity (a.u.) to 9620 fluorescence intensity (a.u.).

Compared with “GCACCATCACATAGCAAACCATAATCACCTACATTTTTCACGGAGTCACCTAGTGCAG”, “TTCTAACCCCAGTAACCGAACACAGCCTTAGTTTTTATTGCGGAGTCACCTAGTGCAG” is lower in binding signal: 8550 fluorescence intensity (a.u.) for the first, 8350 fluorescence intensity (a.u.) for the second.

First: GGTGTGCGGCTTCCAGTATCCTTGAACAATTCAGGTTTTCCGGAGTCACCTAGTGCAG
Second: CTCCACCAGCCGTTATTCTTTTGTTTCGTCCTCACTCATCCGGAGTCACCTAGTGCAG
The binding signal of the first is higher: 9370 fluorescence intensity (a.u.) for the first, 8140 fluorescence intensity (a.u.) for the second.

Compared with “AATATGGTGTCGTTCACTTTTTTTACGTATATTTCATCATCGGAGTCACCTAGTGCAG”, “TCCCTACCAGAAGACATGTCAGCCTCTACGCAACCATTACCGGAGTCACCTAGTGCAG” is lower in binding signal: 8510 fluorescence intensity (a.u.) for the first, 8190 fluorescence intensity (a.u.) for the second.

Compared with “TTCATACCACCTTACATTTTACGTTTGAATCACCATTCTACGGAGTCACCTAGTGCAG”, “TCTTGCTTATATTCTCTTAAACAGGTATACCCACTGTTTTCGGAGTCACCTAGTGCAG” is higher in binding signal: 8740 fluorescence intensity (a.u.) for the first, 10100 fluorescence intensity (a.u.) for the second.
